Laboratory results: publication doi:10.1101/2024.03.13.584761
These are yes or no findings as the source states them, for the method shown. In cells and extracts the contact can be indirect. Some binding calls cover weakened binding; strength is not graded here.

Sequences of proteins named here, by UniProt entry; tags and fusion partners are left off.
UniProt O15131: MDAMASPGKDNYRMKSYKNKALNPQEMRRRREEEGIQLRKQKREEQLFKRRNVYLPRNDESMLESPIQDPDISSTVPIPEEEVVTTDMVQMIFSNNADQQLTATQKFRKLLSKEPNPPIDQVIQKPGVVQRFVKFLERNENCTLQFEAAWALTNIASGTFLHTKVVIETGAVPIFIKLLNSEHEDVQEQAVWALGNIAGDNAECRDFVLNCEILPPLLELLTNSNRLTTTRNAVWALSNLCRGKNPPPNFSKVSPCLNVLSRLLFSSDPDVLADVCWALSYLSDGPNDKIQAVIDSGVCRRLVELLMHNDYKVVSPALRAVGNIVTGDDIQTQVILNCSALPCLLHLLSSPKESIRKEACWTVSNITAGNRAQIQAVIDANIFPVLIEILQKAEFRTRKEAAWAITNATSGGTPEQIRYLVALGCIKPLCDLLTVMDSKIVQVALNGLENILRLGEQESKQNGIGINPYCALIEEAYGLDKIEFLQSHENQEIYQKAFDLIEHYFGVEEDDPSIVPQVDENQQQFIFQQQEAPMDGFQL
UniProt Q05322: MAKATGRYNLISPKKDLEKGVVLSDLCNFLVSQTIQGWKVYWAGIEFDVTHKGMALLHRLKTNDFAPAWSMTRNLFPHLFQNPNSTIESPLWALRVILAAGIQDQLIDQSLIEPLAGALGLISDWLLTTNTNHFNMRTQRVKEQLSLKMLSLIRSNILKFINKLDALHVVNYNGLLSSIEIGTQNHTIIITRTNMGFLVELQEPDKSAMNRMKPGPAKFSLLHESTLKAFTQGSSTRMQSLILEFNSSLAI

Molecular target: HA-tagged IMPA6 (importin-alpha 6) (UniProt O15131)
Assay: co-IP

Question: “Ebola virus (EBOV) VP24 wildtype (from UniProt Q05322 1-251)” was tested. Which binding did it give?
Answer: The binding was “binds”.
